# Primary screen of a compound library

By UniProt entry, the sequences of proteins in these tests, tags left out.
UniProt E9BF75, entry or part of it: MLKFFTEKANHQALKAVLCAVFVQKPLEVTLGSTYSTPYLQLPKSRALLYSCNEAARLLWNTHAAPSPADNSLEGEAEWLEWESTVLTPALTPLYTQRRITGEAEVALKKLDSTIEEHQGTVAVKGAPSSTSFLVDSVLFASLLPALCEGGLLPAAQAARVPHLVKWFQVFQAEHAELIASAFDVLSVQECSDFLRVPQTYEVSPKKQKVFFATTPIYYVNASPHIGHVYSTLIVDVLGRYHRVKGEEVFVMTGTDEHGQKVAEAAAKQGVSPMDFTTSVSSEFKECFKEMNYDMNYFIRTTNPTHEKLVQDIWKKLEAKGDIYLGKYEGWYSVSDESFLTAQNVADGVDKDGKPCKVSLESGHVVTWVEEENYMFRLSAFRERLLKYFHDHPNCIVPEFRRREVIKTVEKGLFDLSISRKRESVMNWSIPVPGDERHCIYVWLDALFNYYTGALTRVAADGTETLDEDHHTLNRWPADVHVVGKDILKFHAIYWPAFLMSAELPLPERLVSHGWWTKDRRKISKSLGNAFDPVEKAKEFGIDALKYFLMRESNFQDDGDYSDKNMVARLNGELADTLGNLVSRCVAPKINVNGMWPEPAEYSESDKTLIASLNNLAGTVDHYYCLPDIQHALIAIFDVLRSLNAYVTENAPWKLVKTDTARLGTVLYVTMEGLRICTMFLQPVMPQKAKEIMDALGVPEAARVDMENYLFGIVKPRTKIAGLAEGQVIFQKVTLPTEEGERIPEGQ

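Methionyl-tRNA synthetase (putative), Leishmania donovani (UniProt E9BF75). Primary screen of methionyl-tRNA synthetase; the read-out is not stated. The test concentration is not given. Values are per cent inhibition. Size under these conditions: about 68,000 compounds, about 24 of them at 50% or above in at least one test.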

Results are percentages, as filed.
How 0% and 100% were set is not recorded. Most values in the screen are low, and negative values occur.
Compounds were drawn at random from those tested, without regard to their results.

{"structure": "NC(=O)CCSc1n[nH]c(-c2ccc3c(c2)CCC3)n1", "Inhibition": 14.1}
{"structure": "COc1ccc(N2Cc3nc(=O)n(Cc4cccc(F)c4)n3C2=O)cc1", "Inhibition": 1.809}
{"structure": "Cc1nc(C(=O)N2CCC(Nc3cccnn3)CC2)cs1", "Inhibition": 9.028}
{"structure": "Cc1noc([C@@H]2C[C@H]3CN(Cc4cc(C)on4)C[C@H]3O2)n1", "Inhibition": 9.804}
{"structure": "Cc1nc2ccccc2n(Cc2nnnn2C2CC2)c1=O", "Inhibition": 12.41}
{"structure": "Cc1cc(C)nc(NC2CC(=O)N(C)C2)n1", "stereo": "stereo not drawn", "Inhibition": 16.01}
{"structure": "CCn1ccnc1CN1CCN(CCc2ccccn2)CC1C", "stereo": "stereo not drawn", "Inhibition": 11.72}
{"structure": "CC(SCC(=O)N(C)CC(=O)NC1CC1)c1cc(F)ccc1F", "stereo": "stereo not drawn", "Inhibition": 9.851}
{"structure": "N#Cc1c(F)cccc1NCCCOCC1CCOC1", "stereo": "stereo not drawn", "Inhibition": 7.397}
{"structure": "Cc1cnn(CC2CN(CCCS(=O)(=O)N(C)C)CCO2)c1", "stereo": "stereo not drawn", "Inhibition": 9.363}
{"structure": "COCCN1CCO[C@@H]2CN(Cc3sccc3C)C[C@@H]2C1", "Inhibition": -1.047}
{"structure": "Cc1cc(CNC(=O)c2cc(COc3cncc(Cl)c3)on2)n[nH]1", "Inhibition": 10.96}
{"structure": "Cc1csc(CCNC(=O)c2cc3c(nc2O)CCC(C)C3)n1", "stereo": "stereo not drawn", "Inhibition": 12.21}
{"structure": "O=C(NCCN1CCOCC1)c1ccc(-c2ccc(F)cc2)nc1O", "Inhibition": -1.818}
{"structure": "CS(=O)(=O)c1ccc(NCCC2CCCO2)c(S(C)(=O)=O)c1", "stereo": "stereo not drawn", "Inhibition": 14.93}
{"structure": "CC(C)c1ncncc1C(=O)NCCN1CCCCC1C", "stereo": "stereo not drawn", "Inhibition": 24.07}
{"structure": "CN(C)Cc1cncc2c1CCN(CC(=O)N(C)C)C2", "Inhibition": 2.933}
{"structure": "CCN1CCCC1CN(CCN(C)C)S(=O)(=O)c1cccc(C#N)c1", "stereo": "stereo not drawn", "Inhibition": 12.32}
{"structure": "O=C(c1cc2c(s1)CCOC2)N1CCCC1Cn1cccn1", "stereo": "stereo not drawn", "Inhibition": 13.13}
{"structure": "CC(=O)N1CC[C@@]2(C(=O)Nc3ccccc3)CCN(S(C)(=O)=O)CC[C@@H]12", "Inhibition": 8.934}
{"structure": "CC1N(c2cnn(C)c2)C(=O)COC12CCN(Cc1ccoc1)CC2", "stereo": "stereo not drawn", "Inhibition": -2.198}
{"structure": "Cc1ccc(NCCCNC(=O)NCc2c(C)cc(C)[nH]c2=O)nc1", "Inhibition": 12.59}
{"structure": "CN(C)C(=O)COC[C@@H]1CC[C@H]2[C@H](CCN2c2ncccn2)O1", "Inhibition": 9.581}
{"structure": "CCOC1CCN(C(=O)c2csc(S(N)(=O)=O)c2)CC1", "Inhibition": 11.96}
{"structure": "O=C(CCCNc1ncccn1)Nc1cc(C(F)(F)F)c[nH]c1=O", "Inhibition": 13.02}
{"structure": "CC(C)c1cc(C(=O)N2CCN(c3ncc4c(n3)CCOC4)CC2)on1", "Inhibition": 4.062}
{"structure": "COCC1CC2(CCN(C(=O)c3cncc(C)c3)CC2)CO1", "stereo": "stereo not drawn", "Inhibition": -2.74}
{"structure": "CC(C)n1ccc2c(C(=O)NC3CN4CCC3CC4)cccc21", "stereo": "stereo not drawn", "Inhibition": 10.61}
{"structure": "O=C(c1cc[nH]n1)N(Cc1ccc(F)cc1)CC1CC1", "Inhibition": 16.67}
{"structure": "CN1CCN(c2ccccc2NC(=O)NCCc2ccc(O)cc2)CC1", "Inhibition": 17.61}

The last 3 entries again:

* CC(C)n1ccc2c(C(=O)NC3CN4CCC3CC4)cccc21 (stereo not drawn) | 10.61%
* O=C(c1cc[nH]n1)N(Cc1ccc(F)cc1)CC1CC1 | 16.67%
* CN1CCN(c2ccccc2NC(=O)NCCc2ccc(O)cc2)CC1 | 17.61%

The values are deposited in ChEMBL (CHEMBL3988442, “University of Dundee, Small-Polar-MMV Screening Library” (2021)).